Measured values from patent US20250223328A1, “TRUNCATED DOMINANT NEGATIVE CEBPB AND CEBPD PROTEINS AND METHODS OF USE FOR DECREASING VIABILITY OF NEOPLASTIC CELLS” (The Trustees of Columbia University in the City of New York, priority 2022, published 2025).
At least one peptide structure holds a part that was inferred or is arguable (an end, a ring closure or a residue). Where no end group is shown, it is not given here.

Experiments:
[1] = system: T98G, MDA-MB-231, A375, Shep21N, and CHLA255 cell lines; assay: Cell numbers after 6 days of peptide treatment in a panel of cancer cell lines; type: cell-based; settings: medium with 2% fetal bovine serum, five cell lines
Protocol: FIGS. 3A-3E are graphs reporting exemplary data showing truncated dominant negative forms of CEBPD reduce cancer cell numbers. Replicate cultures of T98G (FIG. 3A), MDA-MB-231 (FIG. 3B), A375 (FIG. 3C), Shep21N (FIG. 3D), and CHLA255 (FIG. 3E) cell lines were treated with CP-D-123 at the indicated concentrations for 6 days in culture medium containing 2% fetal bovine serum and then assessed for cell numbers. Values are given as means±SEM (N=3 replicate cultures).
FIGS. 4A-4E are graphs reporting exemplary data showing truncated dominant negative forms of CEBPD reduce cancer cell numbers. Replicate cultures of T98G (FIG. 4A), MDA-MB-231 (FIG. 4B), A375 (FIG. 4C), Shep21N (FIG. 4D), and CHLA255 (FIG. 4E) cell lines were treated with CP-D-123, CP-D-234, and Bpep (at 20 μM in T98G, MDA-MB-231, A375 only) at the indicated concentrations for 6 days in culture medium containing 2% fetal bovine serum and then assessed for cell numbers. Values are given as means±SEM (N=3 replicate cultures).

[2] = system: A375 human melanoma subcutaneous xenografts; assay: A375 melanoma subcutaneous xenografts in nude mice: tumor volume and survival; type: in vivo; settings: 10 mg/kg intraperitoneally three times per week vs vehicle (PBS); Wilcoxon Rank-Sum p=0.042

RQIKIWFQNRRMKWKKLVELSAENEKLHQRVEQLTR [CP-D-123]
Reduction of cell numbers [1]: comparable to or higher than that previously published for Dpep | Tumor growth (mean tumor volume) [2]: significant reduction in tumor growth
